T. brucei: 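Whole-parasite assay of Trypanosoma brucei over 72 hours; the read-out is not stated. Compounds at 30 µM. Direction is inferred from retests: higher values go with stronger inhibition. Values scatter widely below zero; nearly all retest evidence comes from the higher of the two concentrations used. Of about 64,000 compounds tested this way, about 940 (1.5%) reached 50% or more in at least one test.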
Toxoplasma: 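Assay of Toxoplasma gondii numbers, read through their beta-galactosidase reporter with a colour substrate. Concentration: 10 µM. The record gives no direction; the compounds picked for IC50 retests had high values, so higher reads as fewer parasites. About 67,000 compounds were tested under these conditions; 0.38% (about 260) showed 50% or more at least once.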
Leishmania in macrophages: 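Cell assay of Leishmania donovani living inside macrophages; the read-out is not stated. Concentration: 30 µM. Higher reads as stronger inhibition (inferred: compounds with an IC50 in retests scored well above the rest). Of about 69,000 compounds tested this way, about 1,000 (1.5%) reached 50% or more in at least one test.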

Each number is a percent effect as filed. The controls that fix the scale are not given in the record; negative values are as filed. The compounds are a random part of those screened. Two or more numbers in one place are separate tests of the same structure; such repeats can differ widely.

CCN(Cc1cn(CC2CCNCC2)nn1)CC1CCCO1 (centres unmarked) read T. brucei: -28.42%; Toxoplasma: -52.34%; Leishmania in macrophages: 62.19%. With CCn1cnnc1C1CCN(C(=O)c2cccc3c2ccn3C)CC1 the screen gave T. brucei: 26.45%; Toxoplasma: 1.8%; Leishmania in macrophages: 34.62%. With COc1ccccc1C(C)CC(=O)N1CCN(S(N)(=O)=O)CC1 (centres unmarked) the screen gave Toxoplasma: -10.21%; Leishmania in macrophages: 20.84%. CC(C)n1nc(CNc2ncccn2)c2c1CN(C1CCOCC1)CC2.O=C(O)C(F)(F)F gave T. brucei: 2.648%; Toxoplasma: 2.066%; Leishmania in macrophages: 41.28%. For CC(O)CN1CCN(C(=O)c2cnn(-c3ccc(Cl)cc3)c2)CC1 (centres unmarked) the result was T. brucei: 26.32%; Toxoplasma: -4.075%; Leishmania in macrophages: 20.07%. Result for COc1ccc(Oc2cccnc2)cc1CN1CCCC1 was Toxoplasma: 0.6168%; Leishmania in macrophages: 5.557%.

CC(Cn1cccn1)NC(=O)Nc1ccc(N2CCCCC2)nc1 (centres unmarked) read T. brucei: -14.47%; Toxoplasma: -11.74%; Leishmania in macrophages: 26.03%. Result for CCOCCN1CCN(CC(=O)NC2(C#N)CCCC2)CC1C (centres unmarked) was T. brucei: -64.07%; Toxoplasma: 3.273%; Leishmania in macrophages: -17.79%. Cc1cc(C2CCCCN2C(=O)c2cccn2C)nc2nccn12 (centres unmarked) read T. brucei: -2.439%; Toxoplasma: -2.252%; Leishmania in macrophages: 3.006%. CC1CCCN(Cc2ccc(CNC(=O)NCc3ccncc3)cc2)C1 (centres unmarked) gave T. brucei: -20.59%; Toxoplasma: -3.386%; Leishmania in macrophages: -8.076%. CCN1CCN(C(=O)COCc2nc(-c3ccncc3)no2)CC1 read Toxoplasma: 11.24%; Leishmania in macrophages: -2.929%. For CC(C)[C@H](NS(C)(=O)=O)C(=O)NCc1cc(-c2ccccc2)n[nH]1 the result was T. brucei: 9.605%; Toxoplasma: -41.79%; Leishmania in macrophages: 15.39% & -3.069%.

For CCOCC(O)CN1CCN(C(=O)c2cc(F)cc(F)c2)CC1 (centres unmarked) the result was Toxoplasma: 5.689%; Leishmania in macrophages: 18.6%. For Cc1ccc(CN2CCN(Cc3ccc(N(C)C)nc3)CC2=O)cc1C the result was T. brucei: 8.485%; Toxoplasma: 5.647%; Leishmania in macrophages: -26.67%. Cc1cnn(CC2CCCN2C(=O)c2cccnc2-n2cncn2)c1 (centres unmarked) read T. brucei: 1.543%; Toxoplasma: -9.545%; Leishmania in macrophages: -2.207%. With Clc1ccc(OCCNC2(c3ccc(Br)cc3)CCOCC2)cc1 the screen gave T. brucei: -14.12%; Toxoplasma: 26.33%; Leishmania in macrophages: 7.613%. For Cc1nccc(CNC(=O)NCC(C)Oc2ccccc2F)n1 (centres unmarked) the result was T. brucei: 8.619%; Toxoplasma: -8.273%; Leishmania in macrophages: 18.59%. Result for Cl.NC1CCc2nc(-c3cccnc3)nc(Nc3ccc(F)cc3)c2C1 (centres unmarked) was T. brucei: 100.3%; Toxoplasma: 24.29%; Leishmania in macrophages: 94.83%.

Result for CC(C)N(C)Cc1ncn2c1CN(C(=O)C1CCCO1)CCC2 (centres unmarked) was T. brucei: -0.337%; Toxoplasma: -18.08%; Leishmania in macrophages: 49.31%. Result for Cc1ccc(CNC(=O)c2ccc(CNS(C)(=O)=O)o2)cc1F was T. brucei: 24.49%; Toxoplasma: -3.339%; Leishmania in macrophages: -28.74%. Result for O=C(Cn1cc(C(=O)O)ccc1=O)Nc1cc(F)ccc1F was T. brucei: -9.094%; Toxoplasma: 0.6378%; Leishmania in macrophages: 9.049%. For C[C@@H]1CN(Cc2ccco2)CCN1C(=O)Cc1ccccc1F the result was T. brucei: 0.6231%; Toxoplasma: -6.412%; Leishmania in macrophages: 0.9373%. Result for Cc1cc(C(=O)Nc2cccn(Cc3ccccc3)c2=O)no1 was T. brucei: -5.879%; Toxoplasma: 28.43%; Leishmania in macrophages: -10.7%. Cn1nc(C2CCNC2)c2c(C(=O)NCC(F)(F)F)cc(C3CC3)nc21 (centres unmarked) read Toxoplasma: 9.808%; Leishmania in macrophages: 14.11%.

Result for COC(=O)C1CCCN1C(=O)c1ccc(-n2nc(C)cc2C)cc1 (centres unmarked) was T. brucei: -11.17%; Toxoplasma: 2.526%; Leishmania in macrophages: 13.67%. COCC1CC2(CCN(S(=O)(=O)C3CC3)CC2)CN1c1ncccn1.O=C(O)C(F)(F)F (centres unmarked) gave T. brucei: -8.026%; Toxoplasma: 1.127%; Leishmania in macrophages: -32.55%. For Cc1cncc(C2CCN(Cc3cnc(C)nc3)CC2)n1 the result was T. brucei: -19.37%; Toxoplasma: 4.871%; Leishmania in macrophages: -14.3%. CN(CCc1ccccn1)c1cc(N2CCCCC2)ncn1 read T. brucei: -86.98%; Toxoplasma: -22.17%; Leishmania in macrophages: 19.87%. CC(C)c1noc(C(C)N2CCN(Cc3cccnc3)CC2)n1 (centres unmarked) read T. brucei: 3.897%; Toxoplasma: -8.129%; Leishmania in macrophages: 14.58%. With [H][C@]12CC[C@]([H])(CN(C3Cc4ccccc4C3)C1)N(Cc1nnc(C)o1)C2 the screen gave T. brucei: 19.71%; Toxoplasma: 3.508%; Leishmania in macrophages: 41.63%.

CCn1cnnc1CNC(=O)NCC(c1cccs1)N1CCCC1 (centres unmarked) gave T. brucei: 13.47%; Toxoplasma: 3.176%; Leishmania in macrophages: -7.745%. With CCn1ncc2c1C(COC)N(C(=O)c1cccs1)CC2.O=C(O)C(F)(F)F (centres unmarked) the screen gave T. brucei: -63.36%; Toxoplasma: -38.36%; Leishmania in macrophages: 8.408%.

Repeated from the top, 3 entries:

With CCN(Cc1cn(CC2CCNCC2)nn1)CC1CCCO1 (centres unmarked) the screen gave T. brucei: -28.42%; Toxoplasma: -52.34%; Leishmania in macrophages: 62.19%.
With CCn1cnnc1C1CCN(C(=O)c2cccc3c2ccn3C)CC1 the screen gave T. brucei: 26.45%; Toxoplasma: 1.8%; Leishmania in macrophages: 34.62%.
With COc1ccccc1C(C)CC(=O)N1CCN(S(N)(=O)=O)CC1 (centres unmarked) the screen gave Toxoplasma: -10.21%; Leishmania in macrophages: 20.84%.

Source: ChEMBL document CHEMBL3988442, “University of Dundee, Small-Polar-MMV Screening Library” (2021).